Data reported in doi:10.1101/2025.11.23.689998.
No constants are given. Whether binding was seen depends on the method and setting. Binding seen in cells or lysates may run through a third protein. Here binding means that the protein was enriched with, or labelled near, the bait; the list need not be complete.

Sequences of proteins named here, by UniProt entry; tags and fusion partners are left off.
UniProt P14713: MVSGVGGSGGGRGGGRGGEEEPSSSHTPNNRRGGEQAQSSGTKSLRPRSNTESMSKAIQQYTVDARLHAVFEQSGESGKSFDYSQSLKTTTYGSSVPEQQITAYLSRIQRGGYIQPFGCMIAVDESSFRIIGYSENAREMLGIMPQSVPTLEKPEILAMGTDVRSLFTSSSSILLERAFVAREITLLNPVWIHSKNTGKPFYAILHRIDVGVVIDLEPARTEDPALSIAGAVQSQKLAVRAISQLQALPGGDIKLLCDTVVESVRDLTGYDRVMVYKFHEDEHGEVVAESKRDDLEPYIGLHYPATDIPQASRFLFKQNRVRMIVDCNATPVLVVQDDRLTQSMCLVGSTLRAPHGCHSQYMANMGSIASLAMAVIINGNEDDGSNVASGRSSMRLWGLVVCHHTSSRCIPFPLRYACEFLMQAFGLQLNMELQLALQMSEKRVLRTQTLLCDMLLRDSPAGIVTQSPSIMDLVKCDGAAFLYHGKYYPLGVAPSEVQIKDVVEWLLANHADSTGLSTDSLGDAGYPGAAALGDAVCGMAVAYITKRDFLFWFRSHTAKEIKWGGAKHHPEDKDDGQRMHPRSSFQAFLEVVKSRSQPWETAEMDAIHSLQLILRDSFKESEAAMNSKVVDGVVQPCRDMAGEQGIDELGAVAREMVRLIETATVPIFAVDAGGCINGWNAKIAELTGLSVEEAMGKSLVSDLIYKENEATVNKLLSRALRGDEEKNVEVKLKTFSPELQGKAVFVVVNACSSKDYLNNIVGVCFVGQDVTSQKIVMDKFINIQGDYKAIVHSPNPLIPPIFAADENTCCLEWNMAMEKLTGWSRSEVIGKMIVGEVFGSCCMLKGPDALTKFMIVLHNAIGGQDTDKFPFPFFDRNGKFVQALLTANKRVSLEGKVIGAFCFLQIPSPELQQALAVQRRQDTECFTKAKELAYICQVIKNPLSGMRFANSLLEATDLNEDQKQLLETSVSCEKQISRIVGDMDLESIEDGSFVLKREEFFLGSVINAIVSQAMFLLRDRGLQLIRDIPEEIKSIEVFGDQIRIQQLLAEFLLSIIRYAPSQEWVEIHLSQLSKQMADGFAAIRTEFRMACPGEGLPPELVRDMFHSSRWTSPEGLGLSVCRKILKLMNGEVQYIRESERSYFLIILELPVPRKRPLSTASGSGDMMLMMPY
UniProt Q9FIJ0: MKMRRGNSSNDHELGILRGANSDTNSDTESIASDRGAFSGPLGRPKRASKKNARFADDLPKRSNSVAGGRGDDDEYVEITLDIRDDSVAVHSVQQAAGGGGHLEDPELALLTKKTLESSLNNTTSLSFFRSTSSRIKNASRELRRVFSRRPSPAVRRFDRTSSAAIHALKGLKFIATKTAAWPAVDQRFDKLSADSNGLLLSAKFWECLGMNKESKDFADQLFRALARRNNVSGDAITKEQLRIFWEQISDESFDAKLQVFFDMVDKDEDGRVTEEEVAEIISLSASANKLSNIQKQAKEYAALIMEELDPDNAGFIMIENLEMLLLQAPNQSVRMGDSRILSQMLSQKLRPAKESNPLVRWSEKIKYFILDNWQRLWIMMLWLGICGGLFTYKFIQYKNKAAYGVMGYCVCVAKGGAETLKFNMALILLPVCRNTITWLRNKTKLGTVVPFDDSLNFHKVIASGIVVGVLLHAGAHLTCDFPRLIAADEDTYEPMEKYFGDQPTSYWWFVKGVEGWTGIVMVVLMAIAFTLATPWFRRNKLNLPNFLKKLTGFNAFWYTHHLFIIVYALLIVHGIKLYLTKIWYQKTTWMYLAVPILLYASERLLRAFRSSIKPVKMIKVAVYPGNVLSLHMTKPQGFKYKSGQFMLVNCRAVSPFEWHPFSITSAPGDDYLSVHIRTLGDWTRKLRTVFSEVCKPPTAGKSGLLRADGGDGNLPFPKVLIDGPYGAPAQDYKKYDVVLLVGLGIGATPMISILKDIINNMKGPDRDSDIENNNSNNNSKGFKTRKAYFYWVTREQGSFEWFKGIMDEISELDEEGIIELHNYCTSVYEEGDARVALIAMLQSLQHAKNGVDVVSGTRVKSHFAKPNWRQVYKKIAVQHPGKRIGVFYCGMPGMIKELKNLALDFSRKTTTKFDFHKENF

Columns and labels:
[1] = biological target: phyB-miniTurbo (phyB CDS - miniTurbo-sCFP3A-3FLAG) (Arabidopsis thaliana) (UniProt P14713); test: proximity labelling
[2] = biological target: HA-tagged RBOHD (RESPIRATORY BURST OXIDASE PROTEIN D) (Arabidopsis thaliana) (UniProt Q9FIJ0); test: affinity purification with mass spectrometry

B1: CYSTEINE-RICH RECEPTOR LIKE KINASE 10 (receptor, UniProt Q8GYA4 35-669)
chain: QDPTYVYHTCQNTANYTSNSTYNNNLKTLLASLSSRNASYSTGFQNATVGQAPDRVTGLFNCRGDVSTEVCRRCVSFAVNDTLTRCPNQKEATLYYDECVLRYSNQNILSTLITTGGVILVNTRNVTSNQLDLLSDLVLPTLNQAATVALNSSKKFGTRKNNFTALQSFYGLVQCTPDLTRQDCSRCLQLVINQIPTDRIGARIINPSCTSRYEIYAFYTESAVPPPPPPPSISTPPVSAPPRSGKDGNSKVLVIAIVVPIIVAVLLFIAGYCFLTRRARKSYYTPSAFAGDDITTADSLQLDYRTIQTATDDFVESNKIGQGGFGEVYKGTLSDGTEVAVKRLSKSSGQGEVEFKNEVVLVAKLQHRNLVRLLGFCLDGEERVLVYEYVPNKSLDYFLFDPAKKGQLDWTRRYKIIGGVARGILYLHQDSRLTIIHRDLKASNILLDADMNPKIADFGMARIFGLDQTEENTSRIVGTYGYMSPEYAMHGQYSMKSDVYSFGVLVLEIISGKKNSSFYQTDGAHDLVSYAWGLWSNGRPLELVDPAIVENCQRNEVVRCVHIGLLCVQEDPAERPTLSTIVLMLTSNTVTLPVPRQPGLFFQSRIGKDPLDTDTTSKSLLGSVDDASITDIHPR
binding [1]: binds
binding [2]: binds
